From publication PMC10667520
These are yes or no findings as the source states them, for the method shown. Binding seen in cells or lysates may run through a third protein. Some results given as binding are weak or reduced against the parent protein; the word gives no strength.

Amino acid sequences for entries named in this document (tags omitted). Residues count along the entry.
UniProt P46531, residues 19-1735: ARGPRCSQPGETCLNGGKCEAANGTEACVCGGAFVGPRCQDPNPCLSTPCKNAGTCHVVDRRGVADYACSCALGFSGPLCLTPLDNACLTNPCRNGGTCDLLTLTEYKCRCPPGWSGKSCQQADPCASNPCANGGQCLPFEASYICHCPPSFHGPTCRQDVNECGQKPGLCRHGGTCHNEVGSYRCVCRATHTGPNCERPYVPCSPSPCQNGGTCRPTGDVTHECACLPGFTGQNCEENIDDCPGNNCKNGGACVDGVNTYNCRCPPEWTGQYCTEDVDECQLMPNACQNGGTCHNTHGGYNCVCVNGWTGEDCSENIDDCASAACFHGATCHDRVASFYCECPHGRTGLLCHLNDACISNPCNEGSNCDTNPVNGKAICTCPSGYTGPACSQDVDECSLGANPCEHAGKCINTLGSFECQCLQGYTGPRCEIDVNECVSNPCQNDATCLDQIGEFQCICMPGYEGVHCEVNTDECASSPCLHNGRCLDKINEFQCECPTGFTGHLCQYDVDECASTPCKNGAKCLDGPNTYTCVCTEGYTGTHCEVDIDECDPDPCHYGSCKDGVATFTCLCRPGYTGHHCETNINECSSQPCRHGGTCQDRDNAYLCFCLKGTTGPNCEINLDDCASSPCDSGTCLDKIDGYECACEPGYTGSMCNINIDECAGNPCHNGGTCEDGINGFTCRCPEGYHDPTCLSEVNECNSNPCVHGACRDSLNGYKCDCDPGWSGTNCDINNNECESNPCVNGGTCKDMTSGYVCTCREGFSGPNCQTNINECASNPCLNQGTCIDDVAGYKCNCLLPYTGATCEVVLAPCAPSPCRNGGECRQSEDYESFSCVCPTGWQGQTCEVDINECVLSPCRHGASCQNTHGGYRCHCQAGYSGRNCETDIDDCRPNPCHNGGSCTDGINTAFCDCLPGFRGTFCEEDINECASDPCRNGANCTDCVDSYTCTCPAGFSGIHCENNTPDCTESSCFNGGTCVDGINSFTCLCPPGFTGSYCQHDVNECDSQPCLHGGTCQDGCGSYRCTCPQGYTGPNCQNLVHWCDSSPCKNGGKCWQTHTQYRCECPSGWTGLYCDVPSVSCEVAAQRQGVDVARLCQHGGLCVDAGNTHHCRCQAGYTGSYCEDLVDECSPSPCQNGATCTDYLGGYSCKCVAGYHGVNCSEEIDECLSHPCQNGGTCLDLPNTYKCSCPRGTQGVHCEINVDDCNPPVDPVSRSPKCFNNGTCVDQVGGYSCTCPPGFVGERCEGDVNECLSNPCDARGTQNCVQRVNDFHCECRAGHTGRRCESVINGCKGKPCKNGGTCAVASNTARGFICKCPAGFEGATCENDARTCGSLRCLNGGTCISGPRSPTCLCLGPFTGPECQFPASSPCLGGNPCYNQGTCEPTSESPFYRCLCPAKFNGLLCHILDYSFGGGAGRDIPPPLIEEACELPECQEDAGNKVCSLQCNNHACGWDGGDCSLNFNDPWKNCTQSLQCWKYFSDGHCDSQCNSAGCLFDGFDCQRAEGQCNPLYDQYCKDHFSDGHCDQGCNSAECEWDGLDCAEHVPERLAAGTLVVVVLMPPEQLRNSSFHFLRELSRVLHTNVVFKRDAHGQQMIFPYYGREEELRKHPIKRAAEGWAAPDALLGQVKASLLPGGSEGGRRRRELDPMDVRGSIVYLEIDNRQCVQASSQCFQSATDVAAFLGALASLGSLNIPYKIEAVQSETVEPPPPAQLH

Molecular target: myc-tagged NOTCH1 extracellular domain (ECD) (UniProt P46531)
Test: co-IP; HEK293T cells 48 h after transfection, lysed in IP lysis buffer; lysates incubated with antibodies at 4 °C overnight, protein A/G beads 1 h at room temperature; immunoblot

binding: binds
B1: SLC35D3 lacking the last 30 amino acids (SLC35D3-30aa) (domain or fragment, UniProt Q5M8T2 1-386)
chain: MRQLCRGRVLGISVAIAHGVFSGSLNILLKFLISRYQFSFLTLVQCLTSSTAALSLELLRRLGLIAVPPFGLSLARSFAGVAVLSTLQSSLTLWSLRGLSLPMYVVFKRCLPLVTMLIGVLVLKNGAPSPGVLAAVLITTCGAALAGAGDLTGDPIGYVTGVLAVLVHAAYLVLIQKASADTEHGPLTAQYVIAVSATPLLVICSFASTDSIHAWTFPGWKDPAMVCIFVACILIGCAMNFTTLHCTYINSAVTTSFVGVVKSIATITVGMVAFSDVEPTSLFIAGVVVNTLGSIIYCVAKFMETRKQSNYEDLEAQPRGEEAQLSGDQLPFVMEELPGEGGNGRSEGGEAAGGPAQESRQEVRGSPRGVPLVAGSSEEGSRRSLK
